Data published in US20070275935A1, “Estratriene Derivatives” (priority 2003, published 2007).
At least one structure is not confirmed: it was looked up by name or label, or the drawing left a doubt.

Legend:
HASM cells = test: bFGF-induced HASM proliferation over 7 days on plastic or collagen-coated silastic, comparison with dexamethasone; format: cell-based, human; settings: 100 nM, bFGF 300 pM
Method: We examined the effects of 4NO (1 μM) and the glucocorticoid dexamethasone (Dex, 100 nM) on the proliferation of HASM cells in response to bFGF (300 pM). Dexamethasone is a commonly used anti-inflammatory glucocorticoid. Cells were cultured on a standard plastic tissue culture plate. The test compounds were pre-incubated with HASM for 30 minutes before the addition of bFGF. The incubation continued for 7 days before cell enumeration (FIG. 5). Data are expressed as a percentage of the cell number in vehicle treated wells and are presented as the mean and standard error of the mean.
The response of HASM cells grown on a collagen extracellular matrix to the glucocorticoids and test compounds was also examined. Cells were cultured on a collagen-coated silastic base. HASM cells were pre-incubated with the test compounds for 30 minutes before the addition of bFGF (300 pM). The incubation continued for 7 days before cell enumeration (FIG. 6). Data are expressed as a percentage of the cell number in vehicle treated wells and are presented as the mean and standard error of the mean.

[1] = biological target: colchicine binding site on tubulin; test: Colchicine displacement assay on partially purified tubulin; settings: partially purified lamb brain tubulin, 1 μM 3H colchicine

In the case of C[C@@H]1C[C@H]2[C@@H]3CCC4=CC(=O)C=C[C@]4(C)[C@@]3(F)[C@@H](O)C[C@]2(C)[C@@]1(O)C(=O)CO [dexamethasone, reference compound], the “effect on bFGF-induced HASM proliferation on collagen (FIG. 6)” value (HASM cells; collagen-coated silastic) is reported as “resistant to regulation by dexamethasone” and the “effect on bFGF-induced HASM proliferation on plastic (FIG. 5)” value (HASM cells; plastic tissue culture plate) is reported as “attenuated, but not completely blocked”.
C[C@]12CC[C@@H]3c4ccc(O)cc4CC[C@H]3[C@@H]1CC[C@@H]2O [E2, estradiol] was tested, and the “Tubulin affinity (pIC50 ^3H-colchicine displacement)” value [1] was less than 4.0.
